Laboratory results: PubChem BioAssay AID1224826 (NIAID, 2016)
Purpose: 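Knock-downs that raise or lower Tnf reporter signal after endotoxin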 (primary screen). System: RAW264.7 G9 macrophages from mouse bearing reporters for p65 (GFP) and the Tnf promoter (mCherry). Reagents: siRNA pool against mouse genes, 100 nM. Duration: 16 h of LPS stimulation, after 2 days of siRNA transfection. Conditions: bacterial lipopolysaccharide (Salmonella minnesota R595), 10 ng/ml. Detection: 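Imaged Tnf reporter mCherry in nuclei, minus background, normalised per plate to the median and expressed as robust z-scores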. Reading the numbers: Tnf reporter robust z-score: higher = stronger Tnf promoter reporter signal after LPS. Active means: 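a well counts as active at a score of -1.3 or below (Tlr4 knock-down control median) or above 3 (raised signal); controls and wells holding fewer than 50 cells are excluded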. Meaning of the calls: active = Tnf reporter clearly lowered or raised; inactive = no clear change in Tnf reporter.
In all, the deposit lists about 17,000 reagents; this is a random part of them. About 1,110 of them (6.6%) were called active. 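Active means lowered or raised reporter signal; replicate intensities are raw and not normalised per plate.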 Reagents against one gene are numbered here. Not all columns of the deposit are shown.

The opening 3 entries, to show the layout:
| Tnf reporter robust z-score | fewer than 50 cells in well | Call | target gene | pool no. |
| --- | --- | --- | --- | --- |
| 0.26 | enough cells in well | inactive | Gp1ba (GeneID 14723) | 1 |
| 4.73 | enough cells in well | active | Mtdh (GeneID 67154) | 1 |
| 0.27 | enough cells in well | inactive | Or8g23 (GeneID 258431) | 1 |

The list itself, from the start:
| Tnf reporter robust z-score | fewer than 50 cells in well | Call | target gene | pool no. |
| --- | --- | --- | --- | --- |
| 0.26 | enough cells in well | inactive | Gp1ba (GeneID 14723) | 1 |
| 4.73 | enough cells in well | active | Mtdh (GeneID 67154) | 1 |
| 0.27 | enough cells in well | inactive | Or8g23 (GeneID 258431) | 1 |
| -0.21 | enough cells in well | inactive | Nyx (GeneID 236690) | 1 |
| 0.96 | enough cells in well | inactive | Kdm1b (GeneID 218214) | 1 |
| 2.49 | enough cells in well | inactive | Osgep (GeneID 66246) | 1 |
| – | fewer than 50 cells per well; well left out of calls | inactive | Ubap2l (GeneID 74383) | 1 |
| -0.42 | enough cells in well | inactive | Nudt13 (GeneID 67725) | 1 |
| 0.74 | enough cells in well | inactive | Dnajc28 (GeneID 246738) | 1 |
| -0.2 | enough cells in well | inactive | Gpr22 (GeneID 73010) | 1 |
| -0.04 | enough cells in well | inactive | Oscp1 (GeneID 230751) | 1 |
| 0.7 | enough cells in well | inactive | Topbp1 (GeneID 235559) | 1 |
| -1.83 | enough cells in well | active | Acot5 (GeneID 217698) | 1 |
| -0.41 | enough cells in well | inactive | Magee1 (GeneID 107528) | 1 |
| 0.19 | enough cells in well | inactive | Il20ra (GeneID 237313) | 1 |
| 1.39 | enough cells in well | inactive | Col23a1 (GeneID 237759) | 1 |
| 1.03 | enough cells in well | inactive | Tnfsf10 (GeneID 22035) | 1 |
| 4.19 | enough cells in well | active | Or8b35 (GeneID 258413) | 1 |
| 0.95 | enough cells in well | inactive | Mgll (GeneID 23945) | 1 |
| -0.68 | enough cells in well | inactive | Dstn (GeneID 56431) | 1 |
| 0.79 | enough cells in well | inactive | Pcdha5 (GeneID 12941) | 1 |
| 0 | enough cells in well | inactive | Cenph (GeneID 26886) | 1 |
| 0.44 | enough cells in well | inactive | Cfap184 (GeneID 66717) | 1 |
| -1.2 | enough cells in well | inactive | Cabp4 (GeneID 73660) | 1 |
| – | fewer than 50 cells per well; well left out of calls | inactive | Plk1 (GeneID 18817) | 1 |
| 0.46 | enough cells in well | inactive | Sgpp1 (GeneID 81535) | 1 |
| -1.39 | enough cells in well | active | Eif4ebp1 (GeneID 13685) | 1 |
| 0.01 | enough cells in well | inactive | Ybx3 (GeneID 56449) | 1 |
| -0.19 | enough cells in well | inactive | Parg (GeneID 26430) | 1 |
| 0.02 | enough cells in well | inactive | Pfdn4 (GeneID 109054) | 1 |
| 0.67 | enough cells in well | inactive | Mrgpra1 (GeneID 233221) | 1 |
| -1.51 | enough cells in well | active | Bud13 (GeneID 215051) | 1 |
| -0.45 | enough cells in well | inactive | Hoxa10 (GeneID 15395) | 1 |
| 0.15 | enough cells in well | inactive | Col2a1 (GeneID 12824) | 1 |
| – | fewer than 50 cells per well; well left out of calls | inactive | Nudt16l2 (GeneID 73532) | 1 |
| 0.26 | enough cells in well | inactive | Nkap (GeneID 67050) | 1 |
| – | fewer than 50 cells per well; well left out of calls | inactive | Fbxo4 (GeneID 106052) | 1 |
| 0.15 | enough cells in well | inactive | Fbxo4 (GeneID 106052) | 2 |
| 1.45 | enough cells in well | inactive | Icos (GeneID 54167) | 1 |
| 0.5 | enough cells in well | inactive | Zfp189 (GeneID 230162) | 1 |
